In patent publication US20070287676A1, “Diagnosis and treatment of endometriosis” (priority 2006, published 2007):
For part of these data: For at least one compound, name, drawing or mass did not settle the structure. Some results were stated once for a whole list of compounds, not compound by compound.

Columns and labels:
[1] = system: YHES cells; assay: Long-term culture and morphology after treatment; type: cell-based, human; details: for time after treatment to apparent recovery from apoptosis: continued culture up to 4 weeks
From the text: The micrographs of the first two rows were taken using 20× magnification, and those of the third row were taken using 10× magnification. The micrographs of the first row and the first two micrographs of second row were obtained using differential inference contrast (DIC) optic; the others were obtained without the DIC optic. […]

[2] = system: FasL; assay: FasL mRNA expression by RT-PCR in treated YHES cells; type: cell-based, human; details: 18 and 36 h after the treatment
Experimental: The YHES cells were harvested by trypsinization and seeded in 12-well at 5×10^4 cells/well plates and were pretreated with E2 and P as described above. […] Total RNA was isolated from treated cells using TRIzol reagent (Invitrogen, Carlsbad, Calif.) according to the manufacturer's instructions. The integrity of total RNA was inspected on an agarose gel. One microgram of total RNA from each sample was treated with DNase I to remove potential DNA contamination and then reverse-transcribed using Superscript II Reverse Transcriptase (Invitrogen). First-strand cDNA obtained from RNA samples was stored at −80° C. until use. To measure the mRNA expression levels of AR, PR-A, PR-B, Fas and FasL in each cell culture, semi-quantitative PCR analysis was performed.
Quantitative real-time RT-PCR was carried out on an ABI 7900 DNA sequencer (Applied Biosystems), and monitored by SYBR Green I (Qiagen, Valencia, Calif.). The PCR products of the expected size were visualized on a 0.8% agarose gel. The relative mRNA level of each gene was calculated using relative quantitation of gene expression (Applied Biosystems, Foster City, Calif.) with 18s as an endogenous control. The reproducibility of the quantitative measurements was evaluated by two independent cDNA syntheses. The means and standard deviations of the replicated measurements were calculated and presented as mean ±s.d.

[3] = system: YHES cells (immortalized human endometrial stromal cell line); assay: MTT cell proliferation assay in YHES cells; type: cell-based; details: 10 μM or lower (10, 1, 0.1 μM), 48 hr
Experimental: An immortalized human endometrial stromal cell line was maintained following Krikun et al. (Krikun et al. 2004 Endocrinology 145:2291-6). Cells were maintained in phenol red-free DMEM/F12 (Gibco, CA) medium supplemented with 10% charcoal-dextran stripped FBS (Biomeda, CA), 1 μl/ml sodium pyruvate (Gibco, CA) and 1× Pen/Strep/Fungizone (Gibco, CA), at 37° C. with 5% C02 in a humidified incubator.
The YHES cells were harvested by trypsinization and seeded in 96-well plate at ˜1×10^4 cells/well. The cells were allowed to attach to the plate for overnight at 37° C. with 5% C02 in a humidified incubator. Then they were pretreated with physiological concentration of E2 (10^-9M) and P (10^-7M) for 24 hr to maintain hormonal responsiveness. […] Cell growth was valuated by the MTT assay (ATCC, Manassas, Va.). MTT assay was performing according to the manufacturer's instructions, and in triplicate to generate mean values. Cell numbers in the untreated control were arbitrarily assigned as 1. The relative cell growth was expressed as fold increase/decrease relative to the control. Data were presented as mean values from three independently repeated experiments.

[4] = system: endometrial stromal cells; assay: Proliferation of endometrial cells (literature and unpublished observation); type: cell-based; details: with VPA; Wu and Guo, unpublished observation
[5] = system: endometriotic cells; assay: Suppression of growth and inflammation of endometriotic cells; type: cell-based; details: used alone

## CC(=O)O[C@]1(C(C)=O)CC[C@H]2[C@@H]3CCC4=CC(=O)CCC4=C3[C@@H](c3ccc(N(C)C)cc3)C[C@@]21C [CDB, CDB-2914]
[1]
  time after treatment to apparent recovery from apoptosis: 8 to 10 days
[2]
  increase of FasL expression: 2-4 fold

## CC(=O)N[C@@H](CS)C(=O)O [NAC, N-acetylcysteine]
[1]
  time after treatment to apparent recovery from apoptosis: 8 to 10 days
[2]
  increase of FasL expression: 2-4 fold

## CC#C[C@]1(O)CC[C@H]2[C@@H]3CCC4=CC(=O)CCC4=C3[C@@H](c3ccc(N(C)C)cc3)C[C@@]21C [RU486]
[3]
  effect on cell proliferation: no inhibition of proliferation at all
[1]; 24 h after the treatment
  cell morphology: signs of apparent apoptosis
[1]; four weeks after the treatment, TSA and RU486 at 100 μM
  recovery judged by morphology: did not recover

## CC1=C(/C=C/C(C)=C/C=C/C(C)=C/C(=O)O)C(C)(C)CCC1 [retinoic acid]
[4]
  combination effect in suppression of proliferation of endometrial cells: appears to synergize with VPA
[5]
  effect of use alone on growth and inflammation: some effect in suppression of growth (but not inflammation)
